Results from one PubChem assay

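Genome-wide siRNA knockdown in TC32 Ewing sarcoma cells, comparing luciferase light from an NR0B1-promoter reporter with a CMV-promoter reporter 48 hours after transfection.
Each siRNA was applied at 20 nM.
A z-score of the log NR0B1-over-CMV signal, less the median of siRNAs with the same seed; more negative means a stronger specific loss of the NR0B1 reporter.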

The strongest results of the screen are mostly left out here.
Sequences are the guide (antisense) strand, without overhang.

{"strand": "UCUGUGAAGACCAACCUGG", "target gene": "ONECUT1", "seed-corrected z-score": "-0.1165"}
{"strand": "UCAGGAUAACCAGCAGUCC", "target gene": "GLB1", "seed-corrected z-score": "0.1383"}
{"strand": "UUAAUGGGAAACACCUUGC", "target gene": "TRIB1", "seed-corrected z-score": "-0.1874"}
{"strand": "UUAAGGUUUACAGAACCGC", "target gene": "C1orf27", "seed-corrected z-score": "0.3779"}
{"strand": "UGCUUGACACUGAGAGUCC", "target gene": "TAC4", "seed-corrected z-score": "0.2552"}
{"strand": "AGAGUCUUGUGAGUAGUGG", "target gene": "SHMT2", "seed-corrected z-score": "-0.8593"}
{"strand": "UGUAGACCAGGUGAGAUGG", "target gene": "FAM198A", "seed-corrected z-score": "-0.107"}
{"strand": "AAUGGUUUUGUCGCCGUUC", "target gene": "TCP10L2", "seed-corrected z-score": "0.2517"}
{"strand": "AGCACAAUAGGAGAGAUGC", "target gene": "ORMDL2", "seed-corrected z-score": "0.714"}
{"strand": "AUGGUGUUCAUGGUCAUGU", "target gene": "FOXA1", "seed-corrected z-score": "1.474"}
{"strand": "UGACUUUCUCGUGUUGGUG", "target gene": "GLT8D2", "seed-corrected z-score": "-0.9103"}
{"strand": "UUAGAACUAUGGUCAGUUG", "target gene": "SPAG8", "seed-corrected z-score": "-0.9989"}
{"strand": "UUUGAAAACCGUAAUCUGU", "target gene": "HLA-DOA", "seed-corrected z-score": "1.518"}
{"strand": "AUCUUGUUGAGCGUACUCC", "target gene": "CNP", "seed-corrected z-score": "0.74"}
{"strand": "AUACGUAUUAUAGCCCAGC", "target gene": "FGF3", "seed-corrected z-score": "-0.6306"}
{"strand": "AAGGCUUUCCGAUUAAACU", "target gene": "NANS", "seed-corrected z-score": "0.5336"}
{"strand": "UCAUAGUCCUCUCCGAUGC", "target gene": "PHB", "seed-corrected z-score": "-0.8349"}
{"strand": "UUUGUUGACCGUGAAGAUG", "target gene": "TRPM4", "seed-corrected z-score": "0.5463"}
{"strand": "UCGCAUAAGAAUUUGUUCC", "target gene": "MORC3", "seed-corrected z-score": "-0.2916"}
{"strand": "UUUCGGCUCAUAUUCUCCC", "target gene": "CNTN5", "seed-corrected z-score": "-0.0179"}
{"strand": "AUUCUUUUGACCAUUAUUU", "target gene": "FOXD1", "seed-corrected z-score": "-0.6612"}
{"strand": "AACAUUUCCAUCUUGGUCC", "target gene": "TMPPE", "seed-corrected z-score": "0.9257"}
{"strand": "UAAGAGACAACUCCAGUGC", "target gene": "NPTXR", "seed-corrected z-score": "0.0649"}
{"strand": "AACCUUAGCACAUUCUGGG", "target gene": "USP4", "seed-corrected z-score": "-0.5069"}
{"strand": "UGAUAUUGUAGAUAGAGAC", "target gene": "PCDHGA8", "seed-corrected z-score": "1.135"}
{"strand": "UAAGUAAGUAUAAUAAGCU", "target gene": "PLPP5", "seed-corrected z-score": "-0.3155"}
{"strand": "UCGUAGAUGAAGACUAUGG", "target gene": "GPR153", "seed-corrected z-score": "-0.8325"}
{"strand": "AACGUGAUAUCAGAGGAGC", "target gene": "LMO7", "seed-corrected z-score": "-0.01305"}
{"strand": "AGCAAACUUAGAGAUAUCC", "target gene": "FAM8A1", "seed-corrected z-score": "-0.1239"}

Some entries from above, unchanged:

UCGUAGAUGAAGACUAUGG against GPR153 gave seed-corrected z-score -0.8325.
UUAGAACUAUGGUCAGUUG against SPAG8 gave seed-corrected z-score -0.9989.

Data taken from PubChem BioAssay AID1159506, deposited by NCATS (2015).